Experimental data from PubChem BioAssay AID2685 (National Center for Advancing Translational Sciences (NCATS), 2010).
The other results are listed elsewhere or left out. Shown are side measurements of this screen, not its main read-out; they come without a call. The list favours compounds with an active or inconclusive main result. Potencies come from curve fits of mixed quality, noted in brackets.

Assay: qHTS Assay for Lipid Storage Modulators in Drosophila S3 Cells;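 on cell number change: cells counted by Cell Tracker Red CMTPX staining in the red channel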
Conditions: BODIPY lipid droplet fluorescence, 18-24 h; for cell number change: measured here: cell count max response, cells fed with added oleic acid
How it was run: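 Laser-scanning cytometry quantifies lipid droplet accumulation (500–530 nm total intensity; droplet/cell object ratio) in oleic acid-fed (400 uM added) Drosophila S3 cells treated with a concentration series. 20 uM Triacsin C defined 100% inhibition.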

[1] = measured here: cell number channel AC50, cells fed with added oleic acid
[2] = measured here: lipid fluorescence (Fed channel) AC50, cells fed with added oleic acid

Compound | cell number change | AC50 [1] | AC50 [2]
CC1CN(S(=O)(=O)c2cccc(C(=O)Nc3ccccc3N3CCCC3)c2)CC(C)O1 (stereo unspecified) | 58.5% | 2.59 µM [rising, full curve] | 
Cc1cccc(-c2c3c(=O)n(C)c(=O)n(C)c3cn2CC2CCCO2)c1 (stereo unspecified) | 9.4% |  | 
CN(C(=O)COC(=O)CNS(=O)(=O)/C=C/c1ccccc1)C1CCS(=O)(=O)C1 (stereo unspecified) | 1.67% |  | 23.1 µM [rising, single point]
COC(=O)/C(=C(/F)Sc1cc(C)c(O)c(C)c1)C(F)(F)F | -38.2% | 3.26 µM [falling, full curve] | 3.66 µM [falling, full curve]
CC(C)Cn1nc(NC(=O)C2CCCO2)c2cc3ccccc3nc21 (stereo unspecified) | -22.1% |  | 
Fc1cccc(-c2nn[nH]n2)c1 | 27.3% |  | 6.51 µM [falling, single point]
CCc1ccc(N2CC(C(=O)N3CCCCCC3)CC2=O)cc1 (stereo unspecified) | 12% |  | 1.64 µM [rising, partial curve, poor fit]
COc1ccc(N2CCN(c3cnc4ccccc4n3)CC2)cc1 | 18.8% |  | 0.146 µM [rising, full curve, poor fit]
COc1ccc(OCc2nnnn2-c2ccccc2)cc1 |  | 4.61 µM [rising, single point] | 3.66 µM [rising, single point]
CS(=O)(=O)c1ccc(C(=O)OCC(=O)NC(=O)C2CCCCC2)cc1[N+](=O)[O-] | -45.6% | 18.4 µM [falling, single point] | 29.1 µM [falling, partial curve, poor fit]
O=C(Cc1ccc(-n2c(=O)c3sccc3n(CC(=O)Nc3ccccc3)c2=O)cc1)NCc1ccco1 | -13.1% |  | 
CC(=O)c1ccc(NC(=O)Cn2cnc(S(=O)(=O)N3CCc4ccccc43)c2)cc1 | 22.9% | 0.82 µM [rising, full curve, poor fit] | 
Cc1cc(-c2ccccc2)nc(N(C)C)c1S(C)(=O)=O | 6.1% |  | 
COc1ccc(C(=O)/C=C/c2ccc(OC)c(Cn3nnc4ccccc43)c2)cc1 | -12.4% |  | 29.1 µM [falling, single point]
CCC1SC2=NC(C)=C(C(=O)OC)C(c3cccs3)N2C1=O (stereo unspecified) | 12% |  | 29.1 µM [falling, single point]
NC(=O)c1ccc(SCC(=O)OCC(=O)NCc2ccco2)c([N+](=O)[O-])c1 | 7.13% |  | 
CC(C)c1ccc(C(C(=O)NC2CCCCC2)N(C(=O)c2csnn2)C2CC2)cc1 (stereo unspecified) | 15% |  | 1.3 µM [rising, full curve, poor fit]
COC(=O)c1oc2ccc(Cl)cc2c1N | 0.397% |  | 1.3 µM [rising, partial curve, poor fit]
Cn1c(N)c(C(=O)COC(=O)CCCc2c[nH]c3ccccc23)c(=O)n(C)c1=O | 83.8% | 29.1 µM [rising, single point] | 0.731 µM [falling, single point]
Cc1c(C(=O)OC2CCC(C)CC2)[nH]c2c1C(=O)CCC2 (stereo unspecified) | 6.32% |  | 6.51 µM [rising, single point]
CC(C)N(c1ccccc1)c1ncnc(NCCC(=O)O)c1[N+](=O)[O-] | -12% |  | 20.6 µM [falling, partial curve]
COc1ccccc1-n1nnnc1SCC(=O)N(C)C1CCS(=O)(=O)C1 (stereo unspecified) | 7.72% |  | 0.82 µM [rising, full curve]
COc1ccc(-c2oc3ccccc3c2C(=O)OCc2ccccc2)cc1 | 34.6% | 0.116 µM [rising, full curve, poor fit] | 
CCC(=O)N(Cc1ccco1)c1nc(-c2ccccc2)cs1 | -45.4% | 29.1 µM [falling, single point] | 
c1ccc2c(c1)N1CCN=C1N2CCN1CCCCC1 | -49.3% | 5.8 µM [falling, full curve] | 6.51 µM [falling, single point]
CC1CCCCN1CCNC(=O)c1ccc2c(=O)n(Cc3ccc(Cl)cc3)c(=S)[nH]c2c1 (stereo unspecified) | 2.59% | 6.51 µM [rising, single point] | 0.326 µM [rising, full curve]
COc1ccc(S(=O)(=O)N(CCc2ccccc2)CC(=O)NC(C)C)cc1 | 23.1% |  | 18.4 µM [rising, partial curve]
C[C@H](NC(=O)NC1CCCc2ccccc21)C(=O)O (stereo partly specified) | 5.21% |  | 0.82 µM [falling, single point]

Taken from the results shown, two compounds:
Compound | cell number change | AC50 [1] | AC50 [2]
Cc1c(C(=O)OC2CCC(C)CC2)[nH]c2c1C(=O)CCC2 (stereo unspecified) | 6.32% |  | 6.51 µM [rising, single point]
CC(C)N(c1ccccc1)c1ncnc(NCCC(=O)O)c1[N+](=O)[O-] | -12% |  | 20.6 µM [falling, partial curve]
